PubChem BioAssay AID248 (DTP/NCI, 2004)
The list is a part of this screen's results and no random one: it is rich in T/C values a quarter to a half above the control, in often repeated tests (any T/C) and in doses without a T/C. Other doses and runs of a compound stand elsewhere. T/C is the treated group as % of the vehicle group. Some doses have a count of surviving animals in place of a T/C: the source holds a T/C of zero for them, seemingly a mark for toxic or unscored doses. Some survivor counts are full or nearly so, which does not show that the dose was tolerated: the source hardly ever lists a survival T/C far under the control, and the zero likely stands for such cases as well. Survivors were counted at the toxicity check, usually on the fifth day, unless a day is given; later deaths do not show. Schedule codes are those of the source, read here as Q, the interval in days (D) or hours (H), X, the number of doses. Some entries hold several experiments; the results are listed from low to high. For survival time, this PubChem deposit counts one and a half times the control or more as active, and values a quarter to a half above the control carry no call in these data; other NCI protocols may use other cut-offs. Additions like (4×) count equal records among those shown. Some T/C values carry the count of animals alive at the toxicity check (mostly the fifth day); without a count, all were alive then.

System: L1210 leukemia ip in BDF1 mice, survival T/C
Assay: NCI In Vivo Anticancer Drug Screen. Data for tumor model L1210 Leukemia (intraperitoneal) in B6D2F1 (BDF1) mice
Settings: vehicle: saline, higher T/C = longer survival
[1] = T/C endpoint: mean survival time, dose: 6.25 mg/kg/injection, schedule: Q01DX009 (ip)
[2] = T/C endpoint: mean survival time, dose: 12.5 mg/kg/injection, schedule: Q01DX009 (ip)
[3] = T/C endpoint: mean survival time, dose: 25.0 mg/kg/injection, schedule: Q01DX009 (ip)

**Q.** For N[C@H](C(=O)O)[C@@H]1CC(Cl)=NO1, which T/C (T/C endpoint: mean survival time, dose: 0.2 mg/kg/injection, schedule: Q03HX024 (ip)) is on record?
**A.** Its T/C is 143 % of control [7 of 8 alive].

**Q.** What about the T/C (T/C endpoint: mean survival time, dose: 0.39 mg/kg/injection, schedule: Q01DX009 (ip)) of the same compound?
**A.** Its T/C is 105 (2×), 107, 111 (2×), 113, 116, 118, 125 % of control.

**Q.** What about the T/C (T/C endpoint: mean survival time, dose: 0.39 mg/kg/injection, schedule: Q03HX008 (ip)) of the same compound?
**A.** Its T/C is 132 % of control.

**Q.** And the T/C (T/C endpoint: mean survival time, dose: 0.78 mg/kg/injection, schedule: Q01DX009 (ip))?
**A.** The T/C was 107, 110, 115, 118, 120, 121, 127 (2×), 128, 130 (3×), 131, 133 (3×), 135 % of control.

**Q.** What about the T/C (T/C endpoint: mean survival time, dose: 0.78 mg/kg/injection, schedule: Q01DX009 (oral)) of the same compound?
**A.** Its T/C is 130 % of control.

**Q.** What about the T/C (T/C endpoint: mean survival time, dose: 0.78 mg/kg/injection, schedule: Q01DX009 (sc)) of the same compound?
**A.** Its T/C is 127 and 133 % of control.

**Q.** And the T/C (T/C endpoint: mean survival time, dose: 0.78 mg/kg/injection, schedule: Q03HX008 (ip))?
**A.** The T/C was 136 % of control.

**Q.** And the T/C (T/C endpoint: mean survival time, dose: 1.56 mg/kg/injection, schedule: Q01DX009 (ip))?
**A.** The T/C was 124, 126 (2×), 129, 131 (2×), 134 (2×), 138, 139, 141, 142, 145, 146, 149, 150, 152 % of control.

**Q.** And the T/C (T/C endpoint: mean survival time, dose: 1.56 mg/kg/injection, schedule: Q01DX009 (oral))?
**A.** The T/C was 139 % of control.

**Q.** And the T/C (T/C endpoint: mean survival time, dose: 1.56 mg/kg/injection, schedule: Q01DX009 (sc))?
**A.** Its T/C is 135 and 148 % of control.

**Q.** And the T/C (T/C endpoint: mean survival time, dose: 1.56 mg/kg/injection, schedule: Q03HX008 (ip))?
**A.** Its T/C is 143 % of control.

**Q.** And the T/C (T/C endpoint: mean survival time, dose: 1.56 mg/kg/injection, schedule: Q04DX003 (ip))?
**A.** The T/C was 128 % of control.

**Q.** And the T/C (T/C endpoint: mean survival time, dose: 2.0 mg/kg/injection, schedule: Q01DX009 (ip))?
**A.** Its T/C is 137 % of control (2×).

**Q.** What about the T/C (T/C endpoint: mean survival time, dose: 3.12 mg/kg/injection, schedule: Q01DX009 (ip)) of the same compound?
**A.** Its T/C is 107, 109, 123, 131, 134 (3×), 134 [5 of 6 alive], 137, 141 (2×), 146, 150, 154, 156, 158, 163, 171 % of control.

**Q.** What about the T/C (T/C endpoint: mean survival time, dose: 3.12 mg/kg/injection, schedule: Q01DX009 (sc)) of the same compound?
**A.** Its T/C is 133 and 148 % of control.

**Q.** And the T/C (T/C endpoint: mean survival time, dose: 3.12 mg/kg/injection, schedule: Q03HX008 (ip))?
**A.** Its T/C is 143 % of control.

**Q.** And the T/C (T/C endpoint: mean survival time, dose: 3.12 mg/kg/injection, schedule: Q04DX003 (ip))?
**A.** Its T/C is 125 % of control.

**Q.** And the T/C (T/C endpoint: mean survival time, dose: 3.13 mg/kg/injection, schedule: Q01DX009 (ip))?
**A.** The T/C was 136 % of control.

**Q.** What about the T/C (T/C endpoint: mean survival time, dose: 4.0 mg/kg/injection, schedule: Q01DX009 (ip)) of the same compound?
**A.** Its T/C is 142 % of control.

**Q.** And the T/C [1]?
**A.** Its T/C is 93, 95, 96, 100 [5 of 6 alive], 117, 127, 130, 141, 143, 146, 150 (2×), 155, 158, 164, 166, 168 % of control.

**Q.** And the survivor count [1]?
**A.** The survivor count was 5 of 6 and 6 of 6.

**Q.** What about the T/C (T/C endpoint: mean survival time, dose: 6.25 mg/kg/injection, schedule: Q03HX008 (ip)) of the same compound?
**A.** Its T/C is 147 % of control.

**Q.** And the T/C (T/C endpoint: mean survival time, dose: 6.25 mg/kg/injection, schedule: Q04DX003 (ip))?
**A.** Its T/C is 131 % of control.

**Q.** What about the T/C [2] of the same compound?
**A.** The T/C was 92, 93, 97 [5 of 6 alive], 106, 124, 127, 132, 145, 161 [5 of 6 alive], 164, 169, 174, 191 % of control.

**Q.** And the survivor count [2]?
**A.** Its survivor count is 6 of 6 and 8 of 8.

**Q.** What about the survivor count (T/C endpoint: mean survival time, dose: 12.5 mg/kg/injection, schedule: Q01DX009 (oral)) of the same compound?
**A.** Its survivor count is 6 of 6.

**Q.** What about the T/C (T/C endpoint: mean survival time, dose: 12.5 mg/kg/injection, schedule: Q03HX008 (ip)) of the same compound?
**A.** Its T/C is 148 % of control.

**Q.** And the T/C (T/C endpoint: mean survival time, dose: 12.5 mg/kg/injection, schedule: Q04DX003 (ip))?
**A.** The T/C was 146 % of control.

**Q.** And the survivor count (T/C endpoint: mean survival time, dose: 12.8 mg/kg/injection, schedule: Q01DX009 (ip))?
**A.** The survivor count was 8 of 8.

**Q.** What about the T/C (T/C endpoint: mean survival time, dose: 16.0 mg/kg/injection, schedule: Q01DX009 (ip)) of the same compound?
**A.** Its T/C is 132 % of control.

**Q.** What about the T/C (T/C endpoint: mean survival time, dose: 25.0 mg/kg/injection, schedule: Q01DX001 (ip)) of the same compound?
**A.** The T/C was 125 % of control.

**Q.** And the T/C [3]?
**A.** Its T/C is 86, 111, 120, 124, 137, 158, 180, 186 % of control.

**Q.** And the survivor count [3]?
**A.** Its survivor count is 4 of 6, 5 of 6, 6 of 6, 8 of 8.

**Q.** And the survivor count (T/C endpoint: mean survival time, dose: 25.0 mg/kg/injection, schedule: Q01DX009 (oral))?
**A.** Its survivor count is 5 of 6.

**Q.** What about the T/C (T/C endpoint: mean survival time, dose: 25.0 mg/kg/injection, schedule: Q04DX003 (ip)) of the same compound?
**A.** Its T/C is 146 % of control.

**Q.** And the T/C (T/C endpoint: mean survival time, dose: 50.0 mg/kg/injection, schedule: Q01DX001 (ip))?
**A.** The T/C was 126 % of control.

**Q.** And the survivor count (T/C endpoint: mean survival time, dose: 50.0 mg/kg/injection, schedule: Q01DX009 (ip))?
**A.** Its survivor count is 6 of 6.

**Q.** What about the survivor count (T/C endpoint: mean survival time, dose: 50.0 mg/kg/injection, schedule: Q01DX009 (oral)) of the same compound?
**A.** Its survivor count is 4 of 6 and 6 of 8.

**Q.** What about the T/C (T/C endpoint: mean survival time, dose: 50.0 mg/kg/injection, schedule: Q04DX003 (ip)) of the same compound?
**A.** Its T/C is 147 % of control.

**Q.** And the T/C (T/C endpoint: mean survival time, dose: 100.0 mg/kg/injection, schedule: Q01DX001 (ip))?
**A.** The T/C was 129 % of control.

**Q.** And the T/C (T/C endpoint: mean survival time, dose: 100.0 mg/kg/injection, schedule: Q04DX003 (ip))?
**A.** The T/C was 134 % of control.

**Q.** And the T/C (T/C endpoint: mean survival time, dose: 200.0 mg/kg/injection, schedule: Q01DX001 (ip))?
**A.** The T/C was 148 % of control.

**Q.** What about the T/C (T/C endpoint: median survival time, dose: 0.19 mg/kg/injection, schedule: Q03HX024 (ip)) of the same compound?
**A.** The T/C was 148 % of control.

**Q.** What about the T/C (T/C endpoint: median survival time, dose: 0.39 mg/kg/injection, schedule: Q01DX009 (ip)) of the same compound?
**A.** The T/C was 138 % of control.

**Q.** And the T/C (T/C endpoint: median survival time, dose: 0.39 mg/kg/injection, schedule: Q03HX008 (ip))?
**A.** The T/C was 125 % of control.
